Key:
MCF-7 cell line = test: In vitro cytotoxicity on MCF-7 cell line; assay type: cell-based; details: MCF7; MCF-7 human breast cancer cells; concentration inhibiting cell viability by 50%; mean of three values; read-out: IC50 (Mean ± SEM) MCF-7
Description: (§1) In vitro bioassay on human cancer cell lines was adopted against two cancer cell lines (MCF-7 and HepG-2). HepG2, human hepatocellular carcinoma and MCF-7, human breast cancer cell lines were obtained from Sigma-Aldrich Chemie GmbH, Taufkirchen, Germany. Tamoxifen and 5-fluorouracil were used as reference standards according to a previously reported method.

HepG-2 cell line = test: In vitro cytotoxicity on HepG-2 cell line; assay type: cell-based; details: HepG2; HepG-2 human hepatocellular carcinoma cells; concentration inhibiting cell viability by 50%; mean of three values; read-out: IC50 (Mean ± SEM) HepG-2
Description: as §1

Structure (SMILES): CC/C(=C(\c1ccccc1)c1ccc(OCCN(C)C)cc1)c1ccccc1 [Tamoxifen, reference compound]
- IC50 (MCF-7 cell line): 22.4 ± 2.42 µM
- IC50 (HepG-2 cell line): 29.4 ± 1.15 µM

— article PMC6222410, “Design, Synthesis and Docking Studies of Novel Macrocyclic Pentapeptides as Anticancer Multi-Targeted Kinase Inhibitors” (Molecules : A Journal of Synthetic Chemistry and Natural …, 2018)
